The other results are listed elsewhere or left out.
Biological target: T1, OsSMF1 (Oryza sativa, UniProt Q6ZLB0 1-436)
T1 sequence: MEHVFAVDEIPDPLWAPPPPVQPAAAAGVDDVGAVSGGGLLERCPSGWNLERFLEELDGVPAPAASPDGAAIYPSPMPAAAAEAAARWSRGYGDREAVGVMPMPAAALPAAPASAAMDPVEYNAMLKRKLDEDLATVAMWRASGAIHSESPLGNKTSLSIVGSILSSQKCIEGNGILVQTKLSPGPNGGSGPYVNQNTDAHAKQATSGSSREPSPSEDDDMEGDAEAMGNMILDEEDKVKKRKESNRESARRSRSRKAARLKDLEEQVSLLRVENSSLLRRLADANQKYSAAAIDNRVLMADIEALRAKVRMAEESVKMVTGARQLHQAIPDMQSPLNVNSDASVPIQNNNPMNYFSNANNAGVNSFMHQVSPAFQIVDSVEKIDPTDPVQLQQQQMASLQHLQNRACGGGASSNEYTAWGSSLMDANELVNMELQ
Experiment: protein-binding microarray (RPBM); PBS, 2% BSA, 51.3 ng/ul salmon testes DNA, 50 uM zinc acetate, 200 nM TF, 25 C, 1 h; high values mean tight binding
Conditions: protein: recombinant; tags: N-terminal polyhistidine and DsRed monomer fusion (pET32a); chain copies: 2; label: CyDye5-dUTP incorporated in the synthesized complementary strand; 3' TTTTT single-stranded linker to array surface; dsDNA, one strand shown
Summary of the method: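 In PBS with 2% BSA, salmon testes DNA and 50 µM zinc acetate, 200 nM protein was incubated on a custom Agilent array at 25 °C for 1 h and then washed off. The array had been made double-stranded by primer extension with Cy5-dUTP and blocked with 2% BSA. The proteins were transcription factors fused N-terminally to polyhistidine and DsRed, expressed in E. coli BL21-CodonPlus and purified on Ni–NTA. The binding signal is per-feature fluorescence intensity (arbitrary units) from an Axon 4000B scanner.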

Row | Sequence | binding signal
1 | CTCCTCTCCTCTCTTCTCCACATCCACAAGAAATTTCGTACGGAGTCACCTAGTGCAG | 3630 fluorescence intensity (a.u.)
2 | CATTTTCCGCGATCCGTTGGAACCGACTTCTCATCAAATGCGGAGTCACCTAGTGCAG | 8310 fluorescence intensity (a.u.)
3 | GCAGAATCTTTGTATAATATATGGACGTGTTGCAGCTTTTCGGAGTCACCTAGTGCAG | 3300 fluorescence intensity (a.u.)
4 | TATCTGCATTGCATTACACATTTTGCTGTTTCTGTTAATGCGGAGTCACCTAGTGCAG | 5870 fluorescence intensity (a.u.)
5 | GCTCCACATATACCGGAGACACGACACCTCCAGCGTTTGCCGGAGTCACCTAGTGCAG | 3440 fluorescence intensity (a.u.)
6 | TGTTCCTTATAAGTGAGATCCACTGTTATGTATTTAAGCGCGGAGTCACCTAGTGCAG | 31400 fluorescence intensity (a.u.)
7 | AACCATCTTAGAGGATAATATGGATGGTATGACAAAGTTTCGGAGTCACCTAGTGCAG | 3430 fluorescence intensity (a.u.)
8 | ATATGCTCATCCCAAATTGGGCTTAAAATCTACAGTCACCCGGAGTCACCTAGTGCAG | 3260 fluorescence intensity (a.u.)
9 | GGGGAGGAGGAAGGCGTGGCGGTGGAGAACGAGATGAGCCCGGAGTCACCTAGTGCAG | 3810 fluorescence intensity (a.u.)
10 | GTCAACTTGCAAGTCCTTAATCTCCAAGATTGATCCGCATCGGAGTCACCTAGTGCAG | 10900 fluorescence intensity (a.u.)
11 | CAACTTCATCAGCAGAAATTGACATGGTGTGATATTTGTGCGGAGTCACCTAGTGCAG | 3330 fluorescence intensity (a.u.)
12 | CGTATTCATGATGCGTCGTGATTCACGCACATACATTTGACGGAGTCACCTAGTGCAG | 4250 fluorescence intensity (a.u.)
13 | GGTGCTGTCATCGAGAGTGAAGCACACGTCAGTATCCCTGCGGAGTCACCTAGTGCAG | 16700 fluorescence intensity (a.u.)
14 | AACACGTCTGACGGTGTGAGGCAGCAGCCGATGTTCTCACCGGAGTCACCTAGTGCAG | 4870 fluorescence intensity (a.u.)
15 | GTCTTTTGATGCGACGCGATGTGACTCGCCCGACCCAACTCGGAGTCACCTAGTGCAG | 3780 fluorescence intensity (a.u.)
16 | GCGGATTCCCGTGCAAATAGGGCCTCCACGTGGCGCGGCGCGGAGTCACCTAGTGCAG | 17300 fluorescence intensity (a.u.)
17 | TTCTAGCTTTTCTGTCACATGTCACATCGTTCCAATTTCACGGAGTCACCTAGTGCAG | 5280 fluorescence intensity (a.u.)
18 | ATATTTTGAATCTGTAACTTAGAATACGTGTTCTGATGCCCGGAGTCACCTAGTGCAG | 4660 fluorescence intensity (a.u.)
19 | CTACAGAACACCTAGACCTTGCCGCCGTCACCACTAGATCCGGAGTCACCTAGTGCAG | 5850 fluorescence intensity (a.u.)
20 | ACGCCGCTCGCGCCCGCGGAGGGGAGGGGAGGGGAAGATCCGGAGTCACCTAGTGCAG | 4510 fluorescence intensity (a.u.)
21 | CCCGAGCGCCACGCCGGACGCCATGAGCAGGGTCGGCGACCGGAGTCACCTAGTGCAG | 3620 fluorescence intensity (a.u.)
22 | TATAAACACCAATACACACACGTGGTGACGTCAGATATTACGGAGTCACCTAGTGCAG | 6650 fluorescence intensity (a.u.)
23 | TAAATTTCAAATTCGTGCCACATAGGTCCTTTTCCTCACACGGAGTCACCTAGTGCAG | 4670 fluorescence intensity (a.u.)
24 | CGCTCTTGGCCGTTGGGAGCCACGTCAGCCGGCGGCCTCCCGGAGTCACCTAGTGCAG | 18900 fluorescence intensity (a.u.)
25 | ACCGGGTTCCACATGTCATACACACATTACGTCTTGGAGTCGGAGTCACCTAGTGCAG | 4450 fluorescence intensity (a.u.)
26 | GGGTGGGAGGGAGGGAGTACATGGTAAGGCCATTCAACAGCGGAGTCACCTAGTGCAG | 4870 fluorescence intensity (a.u.)
27 | AGAGATGCGTGTGTAGGCGGCGGGGAGGGGAGGGCTGTGACGGAGTCACCTAGTGCAG | 5530 fluorescence intensity (a.u.)

Reformatted as tab-separated lines: part of the list above.
Row	Sequence	binding signal
17	TTCTAGCTTTTCTGTCACATGTCACATCGTTCCAATTTCACGGAGTCACCTAGTGCAG	5280 fluorescence intensity (a.u.)
18	ATATTTTGAATCTGTAACTTAGAATACGTGTTCTGATGCCCGGAGTCACCTAGTGCAG	4660 fluorescence intensity (a.u.)
19	CTACAGAACACCTAGACCTTGCCGCCGTCACCACTAGATCCGGAGTCACCTAGTGCAG	5850 fluorescence intensity (a.u.)
20	ACGCCGCTCGCGCCCGCGGAGGGGAGGGGAGGGGAAGATCCGGAGTCACCTAGTGCAG	4510 fluorescence intensity (a.u.)
21	CCCGAGCGCCACGCCGGACGCCATGAGCAGGGTCGGCGACCGGAGTCACCTAGTGCAG	3620 fluorescence intensity (a.u.)
22	TATAAACACCAATACACACACGTGGTGACGTCAGATATTACGGAGTCACCTAGTGCAG	6650 fluorescence intensity (a.u.)
23	TAAATTTCAAATTCGTGCCACATAGGTCCTTTTCCTCACACGGAGTCACCTAGTGCAG	4670 fluorescence intensity (a.u.)
24	CGCTCTTGGCCGTTGGGAGCCACGTCAGCCGGCGGCCTCCCGGAGTCACCTAGTGCAG	18900 fluorescence intensity (a.u.)
25	ACCGGGTTCCACATGTCATACACACATTACGTCTTGGAGTCGGAGTCACCTAGTGCAG	4450 fluorescence intensity (a.u.)

Additional entries follow:

Row | Sequence | binding signal
28 | CCGACCTGACCTGCGCCGTCTGCGGCATCACGTCGACCGGCGGAGTCACCTAGTGCAG | 3400 fluorescence intensity (a.u.)
29 | ACAGTAGCTGTGGATTGAATGGCAGACCCAACTTTAATTGCGGAGTCACCTAGTGCAG | 4680 fluorescence intensity (a.u.)
30 | TTTATCATTTCTGTCCACAAACACATCATGAGTTTCTACACGGAGTCACCTAGTGCAG | 3520 fluorescence intensity (a.u.)
31 | TCGGCATGGGCGGTGGCGCTGGCGCGTCCTCCGATCCCGTCGGAGTCACCTAGTGCAG | 19900 fluorescence intensity (a.u.)
32 | GAAACCAATCACGCGTCGTTACGTGTCTTCGTAGGAACGACGGAGTCACCTAGTGCAG | 3860 fluorescence intensity (a.u.)
33 | CTTAATCCTCTCTTCCTTCCATCCAAACTTGCCACCTATGCGGAGTCACCTAGTGCAG | 4430 fluorescence intensity (a.u.)
34 | ACCCAATGGTTCCCGCTGCCGCGTGCAGGCGATGCGCTTCCGGAGTCACCTAGTGCAG | 3240 fluorescence intensity (a.u.)
35 | CCGCCAACCCACGCTCTATCCACTCACACACACTCTCCTCCGGAGTCACCTAGTGCAG | 3260 fluorescence intensity (a.u.)
36 | TTTGCCTATGTGGGTTTGAAATTTCTCATCAAATTGGTTCCGGAGTCACCTAGTGCAG | 3260 fluorescence intensity (a.u.)
37 | AGCACGGCCGCGGCCACATTGCCCACTGCCTCGGCGGCGCCGGAGTCACCTAGTGCAG | 3760 fluorescence intensity (a.u.)
38 | CCTCATGACCTACCGCCATCACTCGAGTCATTTAGCTTCTCGGAGTCACCTAGTGCAG | 4050 fluorescence intensity (a.u.)
39 | AATCTCATCTCATCAATGGTGTCGCTATTACAGCACGTGGCGGAGTCACCTAGTGCAG | 3740 fluorescence intensity (a.u.)
40 | AAAGAAAATGTTGACTGGATTGACACGCGTACGCTATGTACGGAGTCACCTAGTGCAG | 6810 fluorescence intensity (a.u.)
41 | GAACATGGCGTTGAGCAGGATGTTGCCGCAGACCTTGACGCGGAGTCACCTAGTGCAG | 3160 fluorescence intensity (a.u.)
42 | CAGAAAGCACCACGTCACCGTCGTCTACAGAGCTGCATCGCGGAGTCACCTAGTGCAG | 19100 fluorescence intensity (a.u.)
43 | TCGTGAGCAAGCGGAGTCCGAGTCCGAGTCTGACGCTTGTCGGAGTCACCTAGTGCAG | 3220 fluorescence intensity (a.u.)
44 | TCCTACGTAGCGGCTGAGTCAACGTAGGACCCATGTGGACCGGAGTCACCTAGTGCAG | 5980 fluorescence intensity (a.u.)
45 | AGGAGCAGGTACATTGTGTGGCTATATAAGCGAGGTGGCTCGGAGTCACCTAGTGCAG | 3160 fluorescence intensity (a.u.)
46 | GGTCTTATCCCACGTAGCAAGTTGATTTGGTCATCATCCACGGAGTCACCTAGTGCAG | 6110 fluorescence intensity (a.u.)
47 | TTGTGTTTTAGACAATTGGTCATGTACTCATGTTTATCAGCGGAGTCACCTAGTGCAG | 3270 fluorescence intensity (a.u.)
48 | GACGATCGTGACAACAGCTCGTGAGTCATTGGAACCTTCCCGGAGTCACCTAGTGCAG | 5230 fluorescence intensity (a.u.)
49 | AACATGAACGCCACCGACACGGAAGCATGTCCTGTACCATCGGAGTCACCTAGTGCAG | 4050 fluorescence intensity (a.u.)
50 | GAAAACCAACTCAATAGACATATATCAGTCGACCCCTCTCCGGAGTCACCTAGTGCAG | 22200 fluorescence intensity (a.u.)
51 | TGGGGTATGTGTGCTTGGTTATGTGTGCATCTTAGTTATACGGAGTCACCTAGTGCAG | 3860 fluorescence intensity (a.u.)
52 | AATTTGTGTACTACTCGTGATCGATCCATTTGGCCATTAACGGAGTCACCTAGTGCAG | 11700 fluorescence intensity (a.u.)
53 | ATACGCCGACGGATACGGATACGCTCCGATACATATCCCACGGAGTCACCTAGTGCAG | 23700 fluorescence intensity (a.u.)
54 | AACTCTATCGCTACGTGTATCACTGCGTGTCGAAGGATAACGGAGTCACCTAGTGCAG | 4270 fluorescence intensity (a.u.)

— PMC7819943, “Rice protein-binding microarrays: a tool to detect cis-acting elements near promoter regions in rice”
